Results reported in patent publication US9422274B2, “Oxazolidinone derivatives and composition for preventing or treating hepatitis C containing the same” (KOREA INSTITUTE OF SCIENCE AND TECHNOLOGY, priority 2013, dated 2016).
Some entries share one result that the patent states for a list of compounds.

tested on: huh7 cell lines; experiment: Cytotoxicity test (ToxiLight cytotoxicity assay kit); type: cell-based; details: treated at 1 mM; huh7 cells, 72 hours

Row | Structure (SMILES) | cytotoxicity
1 | CC(=O)NC[C@H]1CN(c2ccc(-c3ccc(-c4cnc([C@@H]5CCCN5C(=O)OC(C)(C)C)[nH]4)cc3)c(F)c2)C(=O)O1 [Example 13, tert-Butyl (S)-2-(5-(4′-((S)-5-(acetamidomethyl)-2-oxooxazolidin-3-yl)-2′-fluoro-[1,1′-biphenyl]-4-yl)-1H-imidazol-2-yl)pyrrolidine-1-carboxylate] | did not show the cytotoxicity
2 | COC(=O)N[C@H](C(=O)N1CCC[C@H]1c1ncc(-c2ccc(-c3ccc(N4C[C@H](Cn5cc(CO)nn5)OC4=O)cc3F)cc2)[nH]1)C(C)C [Example 5, Methyl ((S)-1-((S)-2-(5-(2′-fluoro-4′-((R)-5-((4-(hydroxymethyl)-1H-1,2,3-triazol-1-yl)methyl)-2-oxooxazolidin-3-yl)-[1,1′-biphenyl]-4-yl)-1H-imidazol-2-yl)pyrrolidin-1-yl)-3-methyl-1-oxobutan-2-yl)carbamate] | did not show the cytotoxicity
3 | COC(=O)N[C@H](C(=O)NC[C@H]1CN(c2ccc(-c3ccc(-c4cnc([C@@H]5CCCN5C(C)=O)[nH]4)cc3)c(F)c2)C(=O)O1)C(C)C [Example 17, Methyl ((S)-1-((((S)-3-(4′-(2-((S)-1-acetylpyrrolidin-2-yl)-1H-imidazol-5-yl)-2-fluoro-[1,1′-biphenyl]-4-yl)-2-oxooxazolidin-5-yl)methyl)amino)-3-methyl-1-oxobutan-2-yl)carbamate] | did not show the cytotoxicity
4 | COCc1cn(C[C@H]2CN(c3ccc(-c4ccc(-c5cnc([C@@H]6CCCN6C(=O)[C@@H](NC(=O)OC)C(C)C)[nH]5)cc4)c(F)c3)C(=O)O2)nn1 [Example 7, Methyl ((S)-1-((S)-2-(5-(2′-fluoro-4′-((R)-5-((4-(methoxymethyl)-1H-1,2,3-triazol-1-yl)methyl)-2-oxooxazolidin-3-yl)-[1,1′-biphenyl]-4-yl)-1H-imidazol-2-yl)pyrrolidin-1-yl)-3-methyl-1-oxobutan-2-yl)carbamate] | did not show the cytotoxicity
5 | COC(=O)N[C@H](C(=O)N1CCC[C@H]1c1ncc(-c2ccc(-c3ccc(N4C[C@H](Cn5cc(CNC(C)=O)nn5)OC4=O)cc3F)cc2)[nH]1)C(C)C [Example 10, Methyl ((S)-1-((S)-2-(5-(4′-((R)-5-((4-(acetamidomethyl)-1H-1,2,3-triazol-1-yl)methyl)-2-oxooxazolidin-3-yl)-2′-fluoro-[1,1′-biphenyl]-4-yl)-1H-imidazol-2-yl)pyrrolidin-1-yl)-3-methyl-1-oxobutan-2-yl)carbamate] | did not show the cytotoxicity
6 | CC(=O)NC[C@H]1CN(c2ccc(-c3ccc(-c4cnc([C@@H]5CCCN5C(C)=O)[nH]4)cc3)c(F)c2)C(=O)O1 [Example 14, N—(((S)-3-(4′-(2-((S)-1-acetylpyrrolidin-2-yl)-H-imidazol-5-yl)-2-fluoro-[1,1′-biphenyl]-4-yl)-2-oxooxazolidin-5-yl)methyl)acetamide] | did not show the cytotoxicity
7 | COC(=O)N[C@H](C(=O)NC[C@H]1CN(c2ccc(-c3ccc(-c4cnc([C@@H]5CCCN5C(=O)OC(C)(C)C)[nH]4)cc3)c(F)c2)C(=O)O1)C(C)C [Example 16, tert-Butyl (S)-2-(5-(2′-fluoro-4′-((S)-5-(((S)-2-((methoxycarbonyl)amino)-3-methylbutanamido)methyl)-2-oxooxazolidin-3-yl)-[1,1-biphenyl]-4-yl)-1H-imidazol-2-yl)pyrrolidine-1-carboxylate] | did not show the cytotoxicity
8 | COC(=O)N[C@H](C(=O)N1CCC[C@H]1c1ncc(-c2ccc(-c3ccc(N4C[C@H](Cn5cc(-c6ccccc6)nn5)OC4=O)cc3F)cc2)[nH]1)C(C)C [Example 11, Methyl ((S)-1-((S)-2-(5-(2′-fluoro-4′-((R)-2-oxo-5-((4-phenyl-1H-1,2,3-triazol-1-yl)methyl)oxazolidin-3-yl)-[1,1′-biphenyl]-4-yl)-1H-imidazol-2-yl)pyrrolidin-1-yl)-3-methyl-1-oxobutan-2-yl)carbamate] | did not show the cytotoxicity
9 | COC(=O)N[C@H](C(=O)NC[C@H]1CN(c2ccc(-c3ccc(-c4cnc([C@@H]5CCCN5C(=O)[C@@H](NC(=O)OC)C(C)C)[nH]4)cc3)c(F)c2)C(=O)O1)C(C)C [Example 15, Methyl ((S)-1-((((S)-3-(2-fluoro-4′-(2-((S)-1-((methoxycarbonyl)-L-valyl)pyrrolidin-2-yl)-1H-imidazol-5-yl)-[1,1′-biphenyl]-4-yl)-2-oxooxazolidin-5-yl)methyl)amino)-3-methyl-1-oxobutan-2-yl)carbamate] | did not show the cytotoxicity
10 | COC(=O)N[C@H](C(=O)N1CCC[C@H]1c1ncc(-c2ccc(-c3ccc(N4C[C@H](Cn5ccnn5)OC4=O)cc3F)cc2)[nH]1)c1ccccc1 [Example 4, methyl ((S)-2-((S)-2-(5-(4′-((R)-5-((1H-1,2,3-triazol-1-yl)methyl)-2-oxooxazolidin-3-yl)-2′-fluoro-[1,1′-biphenyl]-4-yl)-1H-imidazol-2-yl)pyrrolidin-1-yl)-2-oxo-1-phenylethyl)carbamate] | did not show the cytotoxicity
11 | COC(=O)N[C@H](C(=O)N1CCC[C@H]1c1ncc(-c2ccc(-c3ccc(N4C[C@H](Cn5ccnn5)OC4=O)cc3F)cc2)[nH]1)C(C)C [Example 3, Methyl ((S)-1-((S)-2-(5-(4′-((R)-5-((1H-1,2,3-triazol-1-yl)methyl)-2-oxooxazolidin-3-yl)-2′-fluoro-[1,1′-biphenyl]-4-yl)-1H-imidazol-2-yl)pyrrolidin-1-yl)-3-methyl-1-oxobutan-2-yl)carbamate] | did not show the cytotoxicity
12 | COC(=O)N[C@H](C(=O)N1CCC[C@H]1c1ncc(-c2ccc(-c3ccc(N4C[C@H](Cn5cc(CCO)nn5)OC4=O)cc3F)cc2)[nH]1)C(C)C [Example 6, Methyl ((S)-1-((S)-2-(5-(2′-fluoro-4′-((R)-5-((4-(2-hydroxyethyl)-1H-1,2,3-triazol-1-yl)methyl)-2-oxooxazolidin-3-yl)-[1,1′-biphenyl]-4-yl)-1H-imidazol-2-yl)pyrrolidin-1-yl)-3-methyl-1-oxobutan-2-yl)carbamate] | did not show the cytotoxicity
13 | COC(=O)N[C@H](C(=O)N1CCC[C@H]1c1ncc(-c2ccc(-c3ccc(N4C[C@H](Cn5cc(COCc6ccccc6)nn5)OC4=O)cc3F)cc2)[nH]1)C(C)C [Example 9, Methyl ((S)-1-((S)-2-(5-(4′-((R)-5-((4-((benzyloxy)methyl)-1H-1,2,3-triazol-1-yl)methyl)-2-oxooxazolidin-3-yl)-2′-fluoro-[1,1′-biphenyl]-4-yl)-1H-imidazol-2-yl)pyrrolidin-1-yl)-3-methyl-1-oxobutan-2-yl)carbamate] | did not show the cytotoxicity
14 | COC(=O)N[C@H](C(=O)N1CCC[C@H]1c1ncc(-c2ccc(-c3ccc(N4C[C@H](CNC(C)=O)OC4=O)cc3F)cc2)[nH]1)C(C)C [Example 12, Methyl ((S)-1-((S)-2-(5-(4′-((S)-5-(acetamidomethyl)-2-oxooxazolidin-3-yl)-2′-fluoro-[1,1′-biphenyl]-4-yl)-1H-imidazol-2-yl)pyrrolidin-1-yl)-3-methyl-1-oxobutan-2-yl)carbamate] | did not show the cytotoxicity
15 | CC(C)(C)OC(=O)N1CCC[C@H]1c1ncc(-c2ccc(-c3ccc(N4C[C@H](Cn5ccnn5)OC4=O)cc3F)cc2)[nH]1 [Example 1, tert-Butyl(S)-2-(5-(4′-((R)-5-((1H-1,2,3-triazol-1-yl)methyl)-2-oxooxazolidin-3-yl)-2′-fluoro-[1,1′-biphenyl]-4-yl)-1H-imidazol-2-yl)pyrrolidine-1-carboxylate] | did not show the cytotoxicity
16 | COC(=O)N[C@H](C(=O)N1CCC[C@H]1c1ncc(-c2ccc(-c3ccc(N4C[C@H](Cn5cc(COC(C)=O)nn5)OC4=O)cc3F)cc2)[nH]1)C(C)C [Example 8, 1-(((R)-3-(2-Fluoro-4′-(2-((S)-1-((methoxycarbonyl)-L-valyl)pyrrolidin-2-yl)-1H-imidazol-5-yl)-[1,1′-biphenyl]-4-yl)-2-oxooxazolidin-5-yl)methyl)-1H-1,2,3-triazol-4-yl)methyl acetate] | did not show the cytotoxicity
